Assay: general procedure: Fmoc solid-phase peptide synthesis; Polystyrene Rink Amide MBHA resin LL (Novabiochem, 0.35 meq/g, 100-200 mesh); diisopropylcarbodiimide/Oxyma; PyAOP/DIEA for fatty acid-linker
Conditions: whole synthesis, analytical RP-HPLC, Waters SymmetryShield RP18 column, scale of the general procedure 0.13 mmol, TFA salt, cyclic, sequence written open

Substance: γE-CNTATCATG-Orn-LAE-αMeF-LVRSSN-NMeN-FGPKLPPTEVGSNTY-NH2
- final HPLC purity: >98.4%
